# The whole screen tested about 320,000 compounds, of which about 2,100 (0.66%) were called active. Inconclusive results, whose numbers are uncertain, are shown with a selection of clear calls. The call rests on the fitted dose curve; in most records, active means well fitted inhibition curve with a large enough effect in the signal ratio, with a control signal flat (not every such curve was filed as active); inconclusive means small, poorly fitted or top-dose-only effect, or effect the other way, or a change in a side signal; inactive means flat fitted curve, though single readings scatter; the % refers to the signal ratio. Where the call is inconclusive, the potency comes from a doubtful curve fit.
# Test: qHTS Assay for Lipid Storage Modulators in Drosophila S3 Cells
# Conditions: BODIPY lipid droplet fluorescence, 18-24 h, cells fed with added oleic acid; lipid storage change, negative = inhibition: at 46.1 µM (top of the series) unless noted
# How it was run: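 Drosophila S3 cells loaded with oleic acid (400 uM, as added) and compounds at several concentrations; lipid droplets imaged by 488-nm laser-scanning cytometry, 500–530 nm intensity and object ratio to cell channel. Percent activity normalized to 20 uM Triacsin C.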
# On the % scale 0 is the no-effect control and ±100 the full control effect; potency means the concentration at half of the fitted maximal effect.
SMILES,Potency,"lipid storage change, negative = inhibition"
CCOC(=O)c1cnc2nc(NCc3ccc(OCc4ccccc4)cc3)[nH]n2c1=O,"inconclusive: 29.1 µM [cytotoxic, single point]",–
CN(CC(=O)Nc1cccc(F)c1)C(=O)c1ccc(N2CCOCC2)c([N+](=O)[O-])c1,–,inconclusive: -37.3%
CCc1cccc(OCCOC(=O)CNS(=O)(=O)c2ccc(NC(C)=O)cc2)c1,–,inconclusive
Cn1nc(C(=O)OCC(=O)Nc2ccc(Cl)cc2Cl)c2ccccc2c1=O,–,inconclusive: -11.2%
CCCCCn1c(CN2CCN(c3cccc(Cl)c3)CC2)nc2c1c(=O)n(C)c(=O)n2C,–,inconclusive: 0.637%
CCCOc1ccc(C(=O)CCNC(Cc2c[nH]c3ccccc23)C(=O)O)cc1 (stereo not drawn),"inconclusive: 1.16 µM [falling, partial curve]",–
Cc1cc(NC(=O)CSc2nc3c(c(-c4cccnc4)c2C#N)CCC3)no1,"inconclusive: 0.0651 µM [activator, partial curve]",–
CSC(=S)N/N=C/c1ccc(N(C)C)cc1,–,inconclusive: 7.29%
CCn1c(=N)n(CC(=O)c2cccc([N+](=O)[O-])c2)c2ccccc21,–,inconclusive: 14.9%
COC(=O)[C@@]1(Cc2ccc(F)cc2)[C@H]2c3cc(C(=O)N4CCCC4)n(CCCNc4ncc(C(F)(F)F)cc4Cl)c3C[C@H]2CN1C(=O)c1ccccc1,–,inconclusive: -42.3%
COc1ccc(-c2nc3ccccc3c(=O)n2NC(=O)Cc2ccccc2)cc1,–,inconclusive: -19.7%
O=c1nc2n(c3ccc([N+](=O)[O-])cc13)CCCCC2,–,inconclusive: -14.8%
O=S(=O)(ON(c1ccccc1)S(=O)(=O)c1ccccc1)c1ccccc1,–,inconclusive: 10.7%
Cc1ccc(NC(=O)Cn2cccc2)c(Br)c1,–,inconclusive: 7.72%
COc1ccccc1OCCCC(=O)Nc1nnc(C2CCCO2)s1 (stereo not drawn),"inconclusive: 0.116 µM [rising, full curve, poor fit]",–
Cc1ccc(S(=O)(=O)N2CCN(CC(=O)N/N=C\c3ccc(Cl)c([N+](=O)[O-])c3)CC2)cc1,"inconclusive: 25.9 µM [falling, single point]",–
O=C(NCc1ccccn1)C(=O)Nc1nc(-c2ccccc2)cs1,–,inconclusive: 13%
CN1CCN(C(=O)c2ccc3c(c2)N(Cc2ccccc2F)C(=O)c2ccccc2S3=O)CC1 (stereo not drawn),"inconclusive: 4.11 µM [activator, single point]",–
O=C(O)c1ccc([N+](=O)[O-])c(CS(=O)(=O)c2ccccc2)c1,"inconclusive: 0.0461 µM [falling, full curve, poor fit]",–
Cc1ccc(C(=O)N2CC(C)CC(C)C2)cc1S(=O)(=O)N1CCCCC1 (stereo not drawn),–,inconclusive: -7.84%
c1ccc(CCSc2ncnc3nc[nH]c23)cc1,–,inconclusive: -11.2%
Cc1ccc(F)cc1NC(=O)COC(=O)c1ccc2ncsc2c1,–,inconclusive: 8.58%
CCOC(=O)C(/C=C(\C#N)C(=O)OCC)=C(/N)N1CCN(c2ccc(OC)cc2)CC1,–,inconclusive: 10.2%
Cc1cc(C)n(-c2nc(NCCN(C)C)c3c4c(sc3n2)CCCC4)n1,–,inconclusive: -24.1%
CCN(CC(=O)Nc1ccc(NC(C)=O)cc1)C(=O)CCCOc1cccc(C)c1,–,inconclusive: -80.3%

SMILES,Potency,"lipid storage change, negative = inhibition"
COc1ccc(-n2c(SCC(=O)N3CCCC3)nc3ccccc3c2=O)cc1,"inconclusive: 0.731 µM [falling, full curve, poor fit]",–
CCN(CC1CCCO1)C(=O)CCc1nnc(CCc2ccccc2OC)o1 (stereo not drawn),–,inconclusive: 32.2%
CCn1cc(C(=O)NCCC(C)C)c(=O)c2cc(S(=O)(=O)N3CCCCC3)ccc21,–,inconclusive: 168%
O=C(Cn1c(=O)n(CCc2c[nH]c3ccccc23)c(=O)c2cccnc21)Nc1ccccc1F,"inconclusive: 0.146 µM [activator, full curve, poor fit]",–
OC1CCC(NC(=S)Nc2ccc(SC(F)F)cc2)CC1 (stereo not drawn),"inconclusive: 0.0046 µM [cytotoxic, full curve, poor fit]",–
Cc1cccc(-n2nc3c([n+]2[O-])CCc2nonc2-3)c1C,"inconclusive: 0.0046 µM [falling, full curve, poor fit]",–
O=C(Nc1nc(-c2ccc(F)c(F)c2)cs1)C1=COCCO1,"inconclusive: 0.461 µM [falling, full curve]",–
CCOc1ccc(NC(=O)COc2ccc(C(=O)NCC3CCCO3)cc2OC)cc1 (stereo not drawn),"inconclusive: 32.6 µM [activator, partial curve, poor fit]",–
CCC(=O)Nc1ccc(Cl)c(-c2nc3ncccc3o2)c1,–,inconclusive: -24.7%
COC(=O)CSc1nnc(-c2ccoc2C)n1-c1ccc(C)cc1,"inconclusive: 32.6 µM [falling, partial curve, poor fit]",–
COc1ccc(NC(=O)CN(C)CC(=O)NC2CCC(C)CC2)cc1 (stereo not drawn),"inconclusive: 0.082 µM [falling, full curve, poor fit]",–
CC1CCCN(CCC(=O)c2ccc(Br)cc2)C1 (stereo not drawn),–,inactive
CC(=O)c1ccc(NC(=O)NC2CCCCCCC2)cc1,–,inconclusive: 20.9%
CN1CCN(C(=O)c2ccc(CNS(=O)(=O)c3cccc(Cl)c3)cc2)CC1,"inconclusive: 0.651 µM [falling, single point]",–
O=C(Nc1cc2c(oc1=O)CCCC2=O)c1ccccc1,–,inconclusive: -33.7%
CC#CC(=O)N1CCC(C(=O)Nc2ccc(Oc3ccccc3)nc2)CC1,–,inconclusive: -32.7%
O=C(c1cc2cc(C(F)(F)F)ccc2s1)N1CCOCC1,–,inconclusive: 29.6%
Cc1nc(CNC(=O)c2cc(COc3c(F)cccc3F)on2)cs1,–,inconclusive: 17.8%
COCCNC(=O)c1c(N)n(/N=C/c2ccc(F)cc2)c2nc3ccccc3nc12,–,inactive
CCCOc1ccc(/C=N/Nc2ccc(C(=O)O)cc2)c(OCCC)c1,–,inactive
O=C(/C=C/c1cccc([N+](=O)[O-])c1)n1cnc2ccccc21,–,inconclusive: 49.7%
O=S(=O)(Nc1nc2ccccc2nc1Cl)c1ccccc1C(F)(F)F,"inconclusive: 29.1 µM [activator, single point]",–
Fc1ccc(C2CC(c3ccc(F)cc3)n3ncnc3N2)cc1 (stereo not drawn),–,inconclusive: 20.5%
O=C(/C=C/c1ccccc1)Nc1ncn[nH]1,"inconclusive: 29.1 µM [falling, single point]",–
CCOC(=O)N1CCN(C(=O)C2CCN(S(=O)(=O)c3cc(OC)ccc3OC)CC2)CC1,–,inconclusive: 52%

SMILES,Potency,"lipid storage change, negative = inhibition"
O=C(CSc1ccc([N+](=O)[O-])cn1)Nc1ccc2c(c1)OCO2,"inconclusive: 11.6 µM [activator, single point]",–
O=C(CSc1ncn[nH]1)CSc1ncn[nH]1,"inconclusive: 0.651 µM [falling, single point]",–
CCOC(=O)c1cnc2c(C(F)(F)F)cccc2c1NCCCN1CCOCC1,"inconclusive: 29.1 µM [falling, single point]",–
COc1ccc(CCN(Cc2cc3cc(C)cc(C)c3nc2Cl)C(=O)C2CC2)cc1,"inconclusive: 14.6 µM [falling, partial curve]",–
O=C(NCCCN1CCCCC1)C1CCCN(c2ncnc3c2nc2n3CCCCC2)C1 (stereo not drawn),active: 29.1 µM,–
CCOC(=O)c1sc(C)c(C(=O)NCC(C)(C)CN(C)C)c1N,–,inconclusive: 45.8%
O=C(CCC(=O)N1CCCCC1)Nc1nnc(C2CCCCC2)s1,"inconclusive: 6.51 µM [falling, single point]",–
CC(=O)NCc1c(Cl)cccc1-n1cccc1,–,inconclusive: 28.3%
COc1ccc(CC(=O)NC(C)c2nnc(SCc3nc4ccccc4c(=O)[nH]3)n2C)cc1 (stereo not drawn),–,inconclusive: -56.7%
Nc1c2c(nc3ccccc13)CCCC2=O,–,inconclusive: 21.5%
O=C(CCCc1ccccc1)NCc1ccc(F)cc1,"inconclusive: 29.1 µM [activator, single point]",–
COc1ccc(CNC(=O)Cn2cc(C(F)(F)F)ccc2=O)cc1OC,"inconclusive: 29.1 µM [activator, single point]",–
O=C(NCN1C(=O)C2C3C=CC(C3)C2C1=O)Nc1cccnc1 (stereo not drawn),"inconclusive: 29.1 µM [cytotoxic, single point]",–
CCOc1cc(N2CCOCC2)c(OCC)cc1NC(=O)c1c(-c2ccccc2)noc1C,"inconclusive: 29.1 µM [falling, single point]",–
COc1ccc(S(=O)(=O)N2CCN(C(=O)c3cccnc3)CC2)cc1OC,–,inconclusive: 34.8%
CC(=O)C1=C(O)C(=O)N(Cc2ccccc2)C1c1ccccc1F (stereo not drawn),active: 18.4 µM,–
O=C(NNc1cc(C(F)(F)F)ccc1Cl)c1ccc(=O)[nH]c1,–,inconclusive: -13%
COc1cccc(N2CCN(C(=O)c3ccc(CS(=O)c4ccccc4Cl)o3)CC2)c1 (stereo not drawn),"inconclusive: 29.1 µM [falling, single point]",–
O=C(c1ccc(S(=O)(=O)N2CCC(c3nc4ccccc4s3)CC2)cc1)N1CCOCC1,–,inconclusive: -15.8%
CN(Cc1ccccc1)C(=O)CN(c1ccc(F)cc1)S(=O)(=O)c1ccc2c(c1)OCCO2,–,inconclusive: -16.2%
COc1ccc(Cl)cc1S(=O)(=O)N1CCN(C(=O)c2cc(OC)c(OC)c(OC)c2)CC1,–,inconclusive: -29.4%
CC(C)CCOc1ccc(C(=O)N2CCN(c3ncccn3)CC2)cc1,–,inconclusive: 172%
COC(=O)C1=C(N)Oc2cc(C)n(CC3CCCO3)c(=O)c2C1c1ccc(Cl)cc1 (stereo not drawn),"inconclusive: 18.4 µM [activator, partial curve]",–

# Exported as tab-separated lines: part of the list above.
SMILES	Potency	lipid storage change, negative = inhibition
CCCOc1ccc(C(=O)CCNC(Cc2c[nH]c3ccccc23)C(=O)O)cc1 (stereo not drawn)	inconclusive: 1.16 µM [falling, partial curve]	–
CCn1c(=N)n(CC(=O)c2cccc([N+](=O)[O-])c2)c2ccccc21	–	inconclusive: 14.9%
CCOC(=O)c1cnc2c(C(F)(F)F)cccc2c1NCCCN1CCOCC1	inconclusive: 29.1 µM [falling, single point]	–

# Reference: PubChem BioAssay AID2685 (National Center for Advancing Translational Sciences (NCATS), 2010)
